Measurements from publication PMC10704435.
Results are given in words; binding and its absence hold for the method and conditions named. Binding seen in cells or lysates may run through a third protein. Some binding calls cover weakened binding; strength is not graded here.

Molecular target: T1, endogenous sortilin of rat prefrontal cortex (rat (endogenous in prefrontal cortex)) (UniProt O54861)
T1 sequence: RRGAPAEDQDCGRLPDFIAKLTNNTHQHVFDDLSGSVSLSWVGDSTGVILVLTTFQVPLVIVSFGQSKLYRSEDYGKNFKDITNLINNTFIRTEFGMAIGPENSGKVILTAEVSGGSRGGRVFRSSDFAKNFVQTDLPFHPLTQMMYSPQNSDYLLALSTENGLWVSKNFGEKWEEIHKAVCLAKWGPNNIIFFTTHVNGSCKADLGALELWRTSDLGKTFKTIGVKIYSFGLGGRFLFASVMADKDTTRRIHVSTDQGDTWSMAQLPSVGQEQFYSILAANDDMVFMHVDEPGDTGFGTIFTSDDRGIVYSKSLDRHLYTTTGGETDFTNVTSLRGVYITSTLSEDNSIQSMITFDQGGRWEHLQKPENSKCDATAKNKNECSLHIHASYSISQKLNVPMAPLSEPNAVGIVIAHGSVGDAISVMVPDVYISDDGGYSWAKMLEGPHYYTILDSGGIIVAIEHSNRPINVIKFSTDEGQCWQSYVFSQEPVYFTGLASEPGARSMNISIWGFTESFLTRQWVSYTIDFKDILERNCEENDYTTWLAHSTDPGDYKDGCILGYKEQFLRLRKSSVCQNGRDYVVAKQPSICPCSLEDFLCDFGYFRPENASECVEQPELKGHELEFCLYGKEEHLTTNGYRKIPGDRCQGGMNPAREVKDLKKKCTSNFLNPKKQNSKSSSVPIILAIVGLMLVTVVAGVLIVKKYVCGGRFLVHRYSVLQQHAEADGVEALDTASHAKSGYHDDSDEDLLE
Test: co-IP; endogenous proteins, rat (10 weeks) prefrontal cortex lysate in 50 mM Tris-HCl pH 7.4, 150 mM NaCl, 5 mM CHAPS; IP with anti-sortilin or control IgG; Western blot

B1: endogenous NSG1 of rat prefrontal cortex (protein, UniProt P02683 1-185)
chain: MVKLGNNFAEKGTKQPLLEDGFDTIPLMTPLDVNQLQFPPPDKVVVKTKTEYEPDRKKGKARPPKIAEFTVSITEGVTERFKVSVLVLFALAFLTCVVFLVVYKVYKYDRACPDGFVLKNTQCIPEGLESYYTEQDSSAREKFYTVINHYNLAKQSITRSVSPWMSVLSEEKLSEQETEAAEKSA
B1 was tested. Which binding did it give?
The binding was “binds”.

B2: endogenous NSG2 of rat prefrontal cortex (protein, UniProt Q3KR51 1-171)
chain: MVKLNGNPGEKGAKPPSVEDGFQTVPLITPLEVNHLQLSAPEKVIVKTRTEYQPEQRNKGKFRVPKIAEFTVTILVSLALAFLACIVFLVVYKAFTYDHSCPEGFVYKHKRCIPASLDAYYSSQDPSSRSRFYTVISHYSVAKQSTARAIGPWLSAAAVIHEPKPPKTQGH
Which binding does the source give for B2 here?
The binding was “binds”.
